# This is one part of the list. Further columns of the screen follow, without active or inactive calls. Compounds called inactive in the main read-out are mostly missing here. Words in brackets tell the shape of the fitted curve; partial curves, single points and poor fits give uncertain potencies.
# Experiment: qHTS Assay for Lipid Storage Modulators in Drosophila S3 Cells;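 on cell number change: cells counted by Cell Tracker Red CMTPX staining in the red channel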
# Conditions: BODIPY lipid droplet fluorescence, 18-24 h; for cell number change: measured here: cell count max response, cells fed with added oleic acid
# Outline: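 Laser-scanning cytometry quantifies lipid droplet accumulation (500–530 nm total intensity; droplet/cell object ratio) in oleic acid-fed (400 uM added) Drosophila S3 cells treated with a concentration series. 20 uM Triacsin C defined 100% inhibition.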
# [1] = measured here: cell number channel AC50, cells fed with added oleic acid
# [2] = measured here: lipid fluorescence (Fed channel) AC50, cells fed with added oleic acid
Compound,cell number change,AC50 [1],AC50 [2]
O=c1cc(CO)occ1OCc1cccc(C(F)(F)F)c1,-39.9%,"3.66 µM [falling, full curve]","25.9 µM [falling, single point]"
C#CCNC(=O)C1CCN(c2cc(C)nc(-c3ccccc3)n2)CC1,-5.79%,,"29.1 µM [falling, single point]"
Cc1cc2c(n1-c1ccc(Br)cc1)CC(C)(C)CC2=O,-7.94%,,
S=C(NC1CCCC1)N1CCN(c2cccc(Cl)c2)CC1,-32%,,
O=C(c1ccccc1)c1ccc(OCCCN2CCCC2)cc1,6.35%,,"16.4 µM [rising, single point]"
Cc1ccnc(NS(=O)(=O)c2ccc(N3C(=O)C4CCCCC4C3=O)cc2)n1 (configuration not stated),-8.97%,,
Cc1ccc(C(=O)N2CCN(c3ncnc4c(C)csc34)CC2)cc1,-25%,,"16.4 µM [falling, single point]"
O=C(CN1CCN(Cc2ccc(Cl)cc2)C1=O)NCCN1CCCC1,-1.08%,,"6.51 µM [rising, single point]"
Cc1ccc(Cl)c(OCC(=O)Nc2ccc(S(=O)(=O)NC3=NCCCCC3)cc2)c1,-21.7%,,
OCCCNc1nc(-c2ccc(Br)cc2)nnc1-c1ccc(Cl)cc1,-3.46%,,"6.51 µM [rising, single point]"
CC1=NOC(=O)/C1=C\c1ccc(-c2ccc(Cl)c(C(=O)O)c2)o1,-29.3%,,"23.1 µM [falling, single point]"
Cc1nnc(SCC(=O)N(C(C)C)C(C)C)nc1C,,"3.26 µM [falling, partial curve]",
CCOC(=O)[C@H]1[C@H]2COc3ccc(Cl)cc3[C@@H]2N2C(=O)CNC(=O)[C@@]12C,11.9%,,"1.16 µM [rising, single point]"
N#Cc1cccc(NC(=O)CSc2nnc(-c3n[nH]c4ccccc34)o2)c1,-128%,,
COC(c1ccccc1)c1nnc(CCC(=O)N2CCN(Cc3cccs3)CC2)o1 (configuration not stated),-3.84%,,"0.092 µM [falling, full curve, poor fit]"
O=C1c2ccccc2C(=O)N1Cc1nc(-c2ccccc2)no1,-0.578%,"3.26 µM [rising, partial curve, poor fit]",
O=C(Nc1ccc([N+](=O)[O-])cc1)Nc1cnccn1,19.9%,,
CCOC(=O)C1=C(C)Nc2nnnn2C1c1ccc(OC)c(Br)c1 (configuration not stated),2.99%,,"0.411 µM [rising, partial curve]"
Cc1ccc(S(=O)(=O)N2C(=S)SCC2(C)C)cc1,-12.1%,,"3.66 µM [falling, full curve, poor fit]"
CCN(CC)C(=O)c1sc2nc(-c3ccccc3)ccc2c1N,22.4%,"1.84 µM [rising, partial curve, poor fit]","1.84 µM [rising, partial curve]"
CN(Cc1cccc(Cl)c1Cl)CC(O)COc1ccccc1 (configuration not stated),-53.3%,"32.6 µM [falling, partial curve]","32.6 µM [falling, single point]"
COc1ccc(OCCC(=O)NC2CCCCC2)cc1,43.4%,"29.1 µM [rising, single point]",

# Sorted by SMILES length (falling): three of the compounds above
Compound,cell number change,AC50 [1],AC50 [2]
OCCCNc1nc(-c2ccc(Br)cc2)nnc1-c1ccc(Cl)cc1,-3.46%,,"6.51 µM [rising, single point]"
O=C(CN1CCN(Cc2ccc(Cl)cc2)C1=O)NCCN1CCCC1,-1.08%,,"6.51 µM [rising, single point]"
Cc1cc2c(n1-c1ccc(Br)cc1)CC(C)(C)CC2=O,-7.94%,,

# Remaining list, next part

Compound,cell number change,AC50 [1],AC50 [2]
COc1ccc(CCNC(=O)CNCCc2ccc(F)cc2)cc1,24.8%,,"18.4 µM [rising, single point]"
Cc1ccc2cc(CCNC(=O)CC(C)C)c(=O)[nH]c2c1,5.8%,,"0.164 µM [rising, full curve, poor fit]"
COc1ccc(CN(C(=O)c2cc(=O)c3ccccc3o2)C2CCS(=O)(=O)C2)cc1OC (configuration not stated),20.3%,,
Cc1ccc(NC(=O)Nc2ccc(Cl)c(Cl)c2)nc1,-1.39%,,"6.51 µM [falling, partial curve, poor fit]"
Cc1ccc([C@@H]2[C@@H]3C(=O)N(c4ccccc4)C(=O)[C@@H]3[C@]3(C)C(=O)N(Cc4ccccn4)CC(=O)N23)o1,-2.99%,,
COc1ccccc1CN(Cc1nc2ccccc2c(=O)[nH]1)C(=O)Nc1ccccc1,,"2.31 µM [rising, partial curve]",
Cc1cccc(-n2c(C)nc3c(cnn3-c3ccc(F)cc3)c2=O)c1,-24.3%,"0.00517 µM [falling, full curve, poor fit]","0.326 µM [falling, full curve]"
CC1CCN(S(=O)(=O)N2CCC(C(=O)NCc3ccc4c(c3)OCO4)CC2)CC1,30.9%,,"6.51 µM [rising, full curve]"
Cc1nnc(SCC(=O)Nn2cnnc2)s1,7.23%,,
CCN1CCN(C(=S)c2ccc(SC)cc2)CC1,12.1%,,"25.9 µM [rising, single point]"
Cc1c(C(=O)N(C)CCOc2ccccc2)oc2c(Cl)cccc12,26.7%,,"23.1 µM [rising, single point]"
CCOc1cc(/C=C2\NC(=S)N(c3c(C)n(C)n(-c4ccccc4)c3=O)C2=O)ccc1O,25.1%,,
CC(=O)N(CN1C(=O)c2ccccc2C1=O)c1ccccc1,3.76%,,"0.82 µM [falling, single point]"
C=CCn1c(CNC(=O)c2cccs2)nnc1SCC(=O)c1ccc(Br)cc1,11.4%,,
CC(Sc1nc(N)cc(=O)[nH]1)C(=O)Nc1nc2c(s1)CCCC2 (configuration not stated),1.28%,,"6.51 µM [rising, single point]"
O=C(Nc1nc2c(s1)CCCC2)c1ccc(Br)o1,13.3%,"4.61 µM [falling, single point]",
Cc1cccc(C(=O)NCC(=O)OCC(=O)NC2CCCCCCC2)c1,-8.75%,,
O=C1CCc2cc(S(=O)(=O)Nc3ccccc3F)ccc2N1,-23%,"1.84 µM [falling, partial curve]","6.51 µM [falling, single point]"
CCCNC(=O)C12CCC(C)(c3nc4cc(C)c(C)cc4nc31)C2(C)C (configuration not stated),,"3.66 µM [rising, partial curve]",
O=C(Nc1nnc(SCc2ccc(F)cc2)s1)c1ccco1,-4.29%,,"6.51 µM [falling, single point]"
COC(C(=O)Nc1ccnn1C1CCN(Cc2cnn(C(C)C)c2)CC1)c1ccccc1 (configuration not stated),36.3%,"29.1 µM [rising, single point]","29.1 µM [rising, single point]"

# Reference: PubChem BioAssay AID2685 (National Center for Advancing Translational Sciences (NCATS), 2010)
